Laboratory results taken from paper PMC12508156, “Non-canonical dihydrolipoyl transacetylase promotes chemotherapy resistance via mitochondrial tetrahydrofolate signaling” (Nature Communications, 2025).
Results are given in words; binding and its absence hold for the method and conditions named. Binding seen in cells or lysates may run through a third protein. Some entries that bind do so weakly or less than the wild type.

The chains behind the UniProt entries cited, without tags or fusion partners. Residues count along the entry.
UniProt O00411, residues 42-1230: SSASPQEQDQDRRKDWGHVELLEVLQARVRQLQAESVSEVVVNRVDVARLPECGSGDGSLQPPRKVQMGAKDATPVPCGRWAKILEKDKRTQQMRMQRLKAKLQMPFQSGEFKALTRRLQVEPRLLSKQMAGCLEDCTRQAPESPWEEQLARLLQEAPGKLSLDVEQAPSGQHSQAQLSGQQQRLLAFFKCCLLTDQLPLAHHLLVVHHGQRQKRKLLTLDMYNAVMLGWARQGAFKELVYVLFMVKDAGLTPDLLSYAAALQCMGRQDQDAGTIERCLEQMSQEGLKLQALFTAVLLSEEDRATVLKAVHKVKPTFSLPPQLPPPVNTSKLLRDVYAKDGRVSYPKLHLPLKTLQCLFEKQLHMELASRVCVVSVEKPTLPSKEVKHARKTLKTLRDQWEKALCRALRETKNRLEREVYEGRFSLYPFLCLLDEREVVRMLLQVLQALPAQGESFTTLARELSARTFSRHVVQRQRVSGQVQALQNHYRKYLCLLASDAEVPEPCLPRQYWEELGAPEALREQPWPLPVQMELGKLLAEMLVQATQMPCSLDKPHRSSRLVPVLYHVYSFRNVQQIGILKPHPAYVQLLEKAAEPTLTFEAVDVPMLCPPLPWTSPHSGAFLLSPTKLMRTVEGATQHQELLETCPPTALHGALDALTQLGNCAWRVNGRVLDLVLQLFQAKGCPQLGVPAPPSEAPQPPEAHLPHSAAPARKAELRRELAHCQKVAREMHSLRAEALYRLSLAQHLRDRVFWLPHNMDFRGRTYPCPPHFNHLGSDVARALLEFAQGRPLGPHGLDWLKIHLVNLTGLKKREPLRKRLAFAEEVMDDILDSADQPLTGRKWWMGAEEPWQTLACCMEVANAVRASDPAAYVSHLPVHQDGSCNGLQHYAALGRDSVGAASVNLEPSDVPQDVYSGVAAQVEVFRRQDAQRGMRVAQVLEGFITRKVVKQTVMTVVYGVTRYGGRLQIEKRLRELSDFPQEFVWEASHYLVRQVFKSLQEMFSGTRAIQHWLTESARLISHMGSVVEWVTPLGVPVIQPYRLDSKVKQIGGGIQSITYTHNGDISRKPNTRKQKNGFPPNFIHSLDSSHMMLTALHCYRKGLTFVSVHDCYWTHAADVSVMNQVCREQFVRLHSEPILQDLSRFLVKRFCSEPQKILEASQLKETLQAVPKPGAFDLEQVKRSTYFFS

T1: dihydrolipoyl transacetylase (DLAT) (human (endogenous in A549^cisR)) (UniProt P10515)
T1 sequence: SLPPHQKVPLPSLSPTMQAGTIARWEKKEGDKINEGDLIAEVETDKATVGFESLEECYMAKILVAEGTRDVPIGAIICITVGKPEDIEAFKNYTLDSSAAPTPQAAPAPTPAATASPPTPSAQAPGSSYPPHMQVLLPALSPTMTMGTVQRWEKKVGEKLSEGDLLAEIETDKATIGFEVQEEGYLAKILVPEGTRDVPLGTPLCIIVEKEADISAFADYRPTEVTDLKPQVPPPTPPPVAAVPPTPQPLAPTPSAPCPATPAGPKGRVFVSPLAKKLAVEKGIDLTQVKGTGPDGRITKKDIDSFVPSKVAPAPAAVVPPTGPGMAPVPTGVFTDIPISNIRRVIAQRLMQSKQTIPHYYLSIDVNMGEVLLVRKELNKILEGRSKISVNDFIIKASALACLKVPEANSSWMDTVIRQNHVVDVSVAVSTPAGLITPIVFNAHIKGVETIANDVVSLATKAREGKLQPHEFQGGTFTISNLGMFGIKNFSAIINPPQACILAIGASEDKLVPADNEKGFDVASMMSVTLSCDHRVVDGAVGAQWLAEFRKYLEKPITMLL

T2: methylenetetrahydrofolate dehydrogenase 2 (MTHFD2) (human (endogenous in A549^cisR)) (UniProt P13995)
T2 sequence: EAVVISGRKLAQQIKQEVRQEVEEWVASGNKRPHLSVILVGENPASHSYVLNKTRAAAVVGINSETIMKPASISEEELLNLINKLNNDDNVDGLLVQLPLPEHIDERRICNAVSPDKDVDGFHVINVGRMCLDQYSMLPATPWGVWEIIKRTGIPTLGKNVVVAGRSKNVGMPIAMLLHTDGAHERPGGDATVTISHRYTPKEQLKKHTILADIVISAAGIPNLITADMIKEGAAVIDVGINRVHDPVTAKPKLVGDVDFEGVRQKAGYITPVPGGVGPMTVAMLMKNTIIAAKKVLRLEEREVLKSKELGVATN


Tests used:
[1] = target: T1, dihydrolipoyl transacetylase (DLAT) (human (endogenous in A549^cisR)); assay: co-IP; co-immunoprecipitation showing candidate interactions with DLAT (Fig. 4b, Supplementary Fig. 4a), immunoblot
[2] = target: T2, methylenetetrahydrofolate dehydrogenase 2 (MTHFD2) (human (endogenous in A549^cisR)); assay: co-IP; MTHFD2 co-immunoprecipitation of endogenous proteins in cisplatin-treated cancer cells (Fig. 4g)

binding [1] | binding [2] | Molecule
binds |  | RNA polymerase mitochondrial (POLRMT) (from UniProt O00411 42-1230) (enzyme)
 | binds | dihydrolipoyl transacetylase (DLAT) (enzyme, UniProt P10515 87-647) SLPPHQKVPLPSLSPTMQAGTIARWEKKEGDKINEGDLIAEVETDKATVGFESLEECYMAKILVAEGTRDVPIGAIICITVGKPEDIEAFKNYTLDSSAAPTPQAAPAPTPAATASPPTPSAQAPGSSYPPHMQVLLPALSPTMTMGTVQRWEKKVGEKLSEGDLLAEIETDKATIGFEVQEEGYLAKILVPEGTRDVPLGTPLCIIVEKEADISAFADYRPTEVTDLKPQVPPPTPPPVAAVPPTPQPLAPTPSAPCPATPAGPKGRVFVSPLAKKLAVEKGIDLTQVKGTGPDGRITKKDIDSFVPSKVAPAPAAVVPPTGPGMAPVPTGVFTDIPISNIRRVIAQRLMQSKQTIPHYYLSIDVNMGEVLLVRKELNKILEGRSKISVNDFIIKASALACLKVPEANSSWMDTVIRQNHVVDVSVAVSTPAGLITPIVFNAHIKGVETIANDVVSLATKAREGKLQPHEFQGGTFTISNLGMFGIKNFSAIINPPQACILAIGASEDKLVPADNEKGFDVASMMSVTLSCDHRVVDGAVGAQWLAEFRKYLEKPITMLL
binds |  | peroxiredoxin 3 (PRDX3) (enzyme, UniProt P30048 62-256) APAVTQHAPYFKGTAVVNGEFKDLSLDDFKGKYLVLFFYPLDFTFVCPTEIVAFSDKANEFHDVNCEVVAVSVDSHFSHLAWINTPRKNGGLGHMNIALLSDLTKQISRDYGVLLEGSGLALRGLFIIDPNGVIKHLSVNDLPVGRSVEETLRLVKAFQYVETHGEVCPANWTPDSPTIKPSPAASKEYFQKVNQ
binds |  | methylenetetrahydrofolate dehydrogenase 2 (MTHFD2) (enzyme, UniProt P13995 36-350) EAVVISGRKLAQQIKQEVRQEVEEWVASGNKRPHLSVILVGENPASHSYVLNKTRAAAVVGINSETIMKPASISEEELLNLINKLNNDDNVDGLLVQLPLPEHIDERRICNAVSPDKDVDGFHVINVGRMCLDQYSMLPATPWGVWEIIKRTGIPTLGKNVVVAGRSKNVGMPIAMLLHTDGAHERPGGDATVTISHRYTPKEQLKKHTILADIVISAAGIPNLITADMIKEGAAVIDVGINRVHDPVTAKPKLVGDVDFEGVRQKAGYITPVPGGVGPMTVAMLMKNTIIAAKKVLRLEEREVLKSKELGVATN
